In PubChem BioAssay AID2685 (National Center for Advancing Translational Sciences (NCATS), 2010) one finds cell number change and AC50 data, which are given here for 39 compounds.

Some of the results follow. The main result of the screen is listed elsewhere. These columns were measured beside it and carry no call. Most of these compounds were active or inconclusive in the main read-out, so they are no random draw. Potencies come from curve fits of mixed quality, noted in brackets.

One may read the AC50 as the midpoint of the concentration-response curve, whichever way the signal moves. High values mean weaker potency, low ones greater potency.

A short description of the assay: qHTS Assay for Lipid Storage Modulators in Drosophila S3 Cells.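 On cell number change: cells counted by Cell Tracker Red CMTPX staining in the red channel.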 To be noted: BODIPY lipid droplet fluorescence, 18-24 h; for cell number change: measured here: cell count max response, cells fed with added oleic acid. An outline of the steps: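 Drosophila S3 cells loaded with oleic acid (400 uM, as added) and compounds at several concentrations; lipid droplets imaged by 488-nm laser-scanning cytometry, 500–530 nm intensity and object ratio to cell channel. Percent activity normalized to 20 uM Triacsin C.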
In general terms: In qHTS, concentration-response curves come from the screen itself.

Setting [1] is: measured here: cell number channel AC50, cells fed with added oleic acid.
[2] abbreviates: measured here: lipid fluorescence (Fed channel) AC50, cells fed with added oleic acid.

For the compound `CCOC(=O)C(OC(=O)c1sc(=S)n(C)c1C)C(C)=O` (stereo not drawn), the cell number change is 87.2%. Besides, the AC50 under setting [1] is 29.1 µM [rising, single point].
As for `O=C(CN1CCCc2ccccc21)NC(=O)NCc1ccccc1`, under setting [2], the AC50 was 2.59 µM [rising, full curve].
For the compound `CCc1ccccc1NC(=O)C1CCCN(c2nccc(C)n2)C1` (stereo not drawn), the cell number change turned out to be 7.21%. Under setting [2], the AC50 was 29.1 µM [rising, single point].
Take `COc1ccc(OCC(=O)Nc2cccc(S(=O)(=O)N(C)c3ccccc3)c2)c([N+](=O)[O-])c1`: the cell number change came to 0.535%. For the same compound, under setting [2], the AC50 is 2.06 µM [rising, full curve].
`Cn1cc([C@@H]2C[C@H]3CN(Cc4cccc(Cl)c4)C(=O)[C@]34CCCN24)c2ccccc21`: the cell number change worked out at 8.71%. Also, under setting [2], the AC50 was 29.1 µM [falling, single point].
Turning to `O=C(NCc1ccccc1)C1CC(=O)N(C2CCCCC2)C1` (stereo not drawn), the cell number change was -12.8%. In addition, the AC50 under setting [2] was 32.6 µM [rising, single point].
On to `Nc1c(C(=O)NC2CC2)sc2nc3c(c(-c4ccco4)c12)CC/C3=C/c1ccco1`, for which the cell number change is 6.91%. Moreover, under setting [1], the AC50 is 4.61 µM [rising, single point]. In addition, under setting [2], the AC50 is 0.58 µM [rising, full curve, poor fit].
As to `O=C(Nc1ccccc1C1CC1)c1cccs1`, the cell number change worked out at 5.42%. Moreover, the AC50 under setting [2] is 0.00461 µM [rising, full curve, poor fit].
For the compound `N#C/C(=C\c1c(N2CCC(C(N)=O)CC2)nc2ccccn2c1=O)C(=O)NC1CCCCC1`, under setting [2], the AC50 was 0.326 µM [falling, full curve].
As for `COCCN1C(=O)N(c2cccc(OC)c2)C(=O)C1CC(=O)Nc1ccc(Cl)cc1` (stereo not drawn), the cell number change is 9.59%. Under setting [2], the AC50 was 32.6 µM [rising, single point].
Regarding `Cc1cc(C)c(NC(=O)CSc2nc(=O)n3cc(C)ccc3n2)c(C)c1`, the concentration at half-maximal activity (AC50) under setting [2] was 0.13 µM [rising, full curve, poor fit].
For the compound `O=C(Nc1cccc2cccc(NC(=O)c3ccco3)c12)c1ccco1`, the cell number change amounted to 13.6%. The half-maximal activity concentration (AC50) under setting [2] is 29.1 µM [rising, partial curve, poor fit].
In the case of `N#CCCn1c(-c2nonc2NC(=O)c2ccccc2Cl)nc2ccccc21`, the cell number change is -24.7%. Also, the AC50 under setting [2] is 1.64 µM [falling, full curve, poor fit].
With `O=C(OCCN1CCOCC1)c1ccc(O)cc1`, the cell number change was -12%.
Turning to `CCCCC(=O)Nc1ncc([N+](=O)[O-])s1`, the cell number change is -45.9%. In addition, the half-maximal activity concentration (AC50) under setting [1] was 17.8 µM [falling, single point]. For the same compound, under setting [2], the AC50 is 35.5 µM [falling, partial curve, poor fit].
In the case of `O=S(=O)(Nc1ccc(N2CCOCC2)cc1)c1ccc(Cl)s1`, the cell number change was 46.3%. Moreover, the concentration at half-maximal activity (AC50) under setting [1] was 8.2 µM [rising, partial curve, poor fit]. In addition, under setting [2], the half-maximal activity concentration (AC50) was 4.61 µM [rising, single point].
With `O=C1C=C(N(CCO)Cc2ccccc2)c2ccccc2C1=O`, under setting [2], the concentration at half-maximal activity (AC50) is 23.1 µM [falling, single point].
With `COc1cc(CN2CCN(Cc3ccc4cc(F)ccc4n3)CC2CCO)cc(OC)c1` (stereo not drawn), the cell number change was -7.61%.
Take `CCOC(=O)c1c(NC(=O)CN2C(=O)c3ccccc3C2=O)sc(Cc2ccc3c(c2)OCO3)c1C`: the cell number change was -6.41%. Under setting [2], the concentration at half-maximal activity (AC50) is 1.46 µM [rising, partial curve].
Turning to `CC(=O)N1c2ccc(S(=O)(=O)N3CCC(C(=O)NCc4ccc(Cl)cc4)CC3)cc2CC1C` (stereo not drawn), the cell number change was 6.93%. Moreover, the AC50 under setting [2] is 29.1 µM [rising, single point].
As to `CCOC(=O)N1CCN(C(=O)c2ccccc2NC(=O)c2ccc(F)cc2)CC1`, the half-maximal activity concentration (AC50) under setting [2] was 5.17 µM [falling, full curve].
`O=C(Nc1ccccc1)c1nc[nH]c1C(=O)N1CCN(c2ccccc2)CC1`: the cell number change was 1.68%. For the same compound, the AC50 under setting [2] is 0.116 µM [rising, full curve, poor fit].
Regarding `Cc1cc(-c2nnc(SCC(=O)Nc3ccccc3C)n2N)n[nH]1`, the cell number change was -17.7%. Besides, the AC50 under setting [2] was 0.517 µM [falling, single point].
For the compound `O=C1Nc2ccccc2N2CCCC12` (stereo not drawn), the cell number change was -7.32%. Besides, under setting [2], the AC50 is 20.6 µM [falling, single point].
As for `CCCCOCCCNC(=O)Cc1ccccc1OC`, the cell number change was 24.5%.
`COCCNC(=O)c1ccc(NS(C)(=O)=O)cc1`: the cell number change was -19.9%. For the same compound, the half-maximal activity concentration (AC50) under setting [2] is 0.00731 µM [rising, full curve, poor fit].
For `Cc1cccc(-n2ncc3c2CCCC3NC(=O)CCc2cccnc2)c1C` (stereo not drawn), the cell number change is -26.7%. Under setting [2], the AC50 is 29.1 µM [falling, single point].
Take `CCc1cc(=O)oc2c(CN3CCN(C)CC3)c(O)c(Cl)cc12`: the cell number change was -24.5%. For the same compound, the half-maximal activity concentration (AC50) under setting [1] was 3.26 µM [falling, full curve, poor fit]. Also, the AC50 under setting [2] is 0.00461 µM [falling, full curve, poor fit].
Consider `O=[N+]([O-])c1ccc(COc2ccc(-c3[nH]ncc3-c3ccccc3)c(O)c2)cc1`, for which the cell number change was -33.1%. Further, the concentration at half-maximal activity (AC50) under setting [1] is 20.6 µM [falling, single point].
Consider `CN(C(=O)c1ccccc1Br)C1CCS(=O)(=O)C1` (stereo not drawn), for which the cell number change was -43.4%. The AC50 under setting [1] is 29.1 µM [falling, single point].
For `CC(=O)N=c1sc2c3ccccc3ccc2n1C`, the cell number change was -12.4%. The AC50 under setting [2] was 0.00461 µM [rising, full curve, poor fit].
Consider `Cc1ccc(/C=C/C(=O)Nc2ccc(S(=O)(=O)Nc3onc(C)c3C)cc2)cc1`, for which the cell number change was -1.28%.
As for `Oc1c(Cl)cc(Cl)cc1CNc1nc2ccccc2[nH]1`, the cell number change is 0.587%.
As for `COc1ccc(C(=O)NC(=S)NNC(=O)CNC(=O)C2CCCCC2)cc1`, the cell number change came to 26.7%. Further, the half-maximal activity concentration (AC50) under setting [2] is 29.1 µM [rising, single point].
For the compound `CN(CCC#N)c1ccc(/C=C(\C#N)c2ccccn2)cc1`, the cell number change is -10.4%. The AC50 under setting [2] is 18.4 µM [falling, single point].
Regarding `Cn1cnnc1SCC(=O)Nc1ncc(C(F)(F)F)cc1Cl`, the AC50 under setting [1] is 0.206 µM [falling, full curve] and the AC50 under setting [2] is 6.51 µM [falling, partial curve, poor fit].
As for `Cn1c(=O)c(C(=O)COC(=O)c2cc(-c3ccco3)nc3ccccc23)c(N)n(CC2CC2)c1=O`, the cell number change was -1.08%. Further, the AC50 under setting [2] is 0.517 µM [rising, partial curve, poor fit].
`O=C(CSc1cccc[n+]1[O-])C12CC3CC(CC(C3)C1)C2`: the cell number change is 1.47%. Besides, under setting [1], the concentration at half-maximal activity (AC50) was 0.82 µM [falling, full curve, poor fit].
Take `O=C(Nc1ccc(Cl)c(Cl)c1)Nc1ccc(Br)cc1F`: the cell number change was -59.9%. In addition, the AC50 under setting [1] is 20.6 µM [falling, single point]. The AC50 under setting [2] is 13 µM [falling, partial curve].
